Laboratory results: publication PMC3834829, “A signature motif mediating selective interactions of BCL11A with the NR2E/F subfamily of orphan nuclear receptors” (Nucleic Acids Research, 2013)
Results are given in words; binding and its absence hold for the method and conditions named. For part of these data: Binding calls can cover weak binding; strength is not graded here.

Amino acid sequences for entries named in this document (tags omitted). A change or cut given only in a name is not applied to a line headed by its entry.
UniProt Q92753: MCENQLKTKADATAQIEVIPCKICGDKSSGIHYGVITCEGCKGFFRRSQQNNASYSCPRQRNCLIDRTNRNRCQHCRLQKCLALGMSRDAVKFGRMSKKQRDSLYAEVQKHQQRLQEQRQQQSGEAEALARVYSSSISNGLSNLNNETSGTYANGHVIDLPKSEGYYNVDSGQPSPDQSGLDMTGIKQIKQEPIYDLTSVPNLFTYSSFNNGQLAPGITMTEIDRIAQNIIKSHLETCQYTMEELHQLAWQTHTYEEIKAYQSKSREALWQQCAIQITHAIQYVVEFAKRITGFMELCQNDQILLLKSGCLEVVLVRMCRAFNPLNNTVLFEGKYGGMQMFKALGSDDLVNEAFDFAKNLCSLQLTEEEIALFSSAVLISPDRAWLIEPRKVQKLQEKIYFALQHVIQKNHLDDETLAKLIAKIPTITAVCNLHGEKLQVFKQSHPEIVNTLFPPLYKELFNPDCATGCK
UniProt P10828: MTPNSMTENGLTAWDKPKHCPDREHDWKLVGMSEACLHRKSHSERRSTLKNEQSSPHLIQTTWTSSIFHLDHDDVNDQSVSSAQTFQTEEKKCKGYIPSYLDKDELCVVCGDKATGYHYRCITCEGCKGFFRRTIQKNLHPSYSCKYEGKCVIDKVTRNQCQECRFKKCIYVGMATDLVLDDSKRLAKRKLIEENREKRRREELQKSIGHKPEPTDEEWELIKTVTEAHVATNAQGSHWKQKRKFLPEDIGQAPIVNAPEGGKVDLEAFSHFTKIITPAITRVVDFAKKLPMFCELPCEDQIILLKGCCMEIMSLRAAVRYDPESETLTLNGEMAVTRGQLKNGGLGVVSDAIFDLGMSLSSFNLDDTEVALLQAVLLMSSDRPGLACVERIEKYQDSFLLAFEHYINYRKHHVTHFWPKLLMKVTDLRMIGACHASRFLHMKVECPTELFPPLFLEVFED
UniProt Q15406: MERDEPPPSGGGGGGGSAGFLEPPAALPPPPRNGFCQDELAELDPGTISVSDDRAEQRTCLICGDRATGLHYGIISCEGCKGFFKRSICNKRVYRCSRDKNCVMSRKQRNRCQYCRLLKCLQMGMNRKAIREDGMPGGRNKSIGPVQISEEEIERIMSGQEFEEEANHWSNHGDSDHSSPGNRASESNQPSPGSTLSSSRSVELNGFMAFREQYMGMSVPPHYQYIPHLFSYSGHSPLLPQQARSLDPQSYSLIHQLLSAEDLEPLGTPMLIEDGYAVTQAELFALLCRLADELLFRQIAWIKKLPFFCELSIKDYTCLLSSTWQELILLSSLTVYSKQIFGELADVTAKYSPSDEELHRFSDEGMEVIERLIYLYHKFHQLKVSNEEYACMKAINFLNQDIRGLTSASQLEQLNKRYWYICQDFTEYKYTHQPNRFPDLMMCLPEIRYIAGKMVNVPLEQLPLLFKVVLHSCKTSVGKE
UniProt P35398: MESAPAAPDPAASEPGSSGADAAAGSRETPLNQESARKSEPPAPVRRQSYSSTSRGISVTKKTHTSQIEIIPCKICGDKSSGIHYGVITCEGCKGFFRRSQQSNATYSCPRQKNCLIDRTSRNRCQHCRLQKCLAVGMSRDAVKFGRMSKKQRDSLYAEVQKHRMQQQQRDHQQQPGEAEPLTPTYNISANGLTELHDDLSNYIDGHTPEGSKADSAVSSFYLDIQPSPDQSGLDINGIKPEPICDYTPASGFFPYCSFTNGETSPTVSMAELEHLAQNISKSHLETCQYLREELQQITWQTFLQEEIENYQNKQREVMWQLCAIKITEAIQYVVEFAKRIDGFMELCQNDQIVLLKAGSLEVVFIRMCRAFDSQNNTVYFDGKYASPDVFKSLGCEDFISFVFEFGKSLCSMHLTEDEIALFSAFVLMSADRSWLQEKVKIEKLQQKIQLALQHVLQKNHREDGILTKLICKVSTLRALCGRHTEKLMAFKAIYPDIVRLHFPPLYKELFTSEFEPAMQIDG
UniProt O00482: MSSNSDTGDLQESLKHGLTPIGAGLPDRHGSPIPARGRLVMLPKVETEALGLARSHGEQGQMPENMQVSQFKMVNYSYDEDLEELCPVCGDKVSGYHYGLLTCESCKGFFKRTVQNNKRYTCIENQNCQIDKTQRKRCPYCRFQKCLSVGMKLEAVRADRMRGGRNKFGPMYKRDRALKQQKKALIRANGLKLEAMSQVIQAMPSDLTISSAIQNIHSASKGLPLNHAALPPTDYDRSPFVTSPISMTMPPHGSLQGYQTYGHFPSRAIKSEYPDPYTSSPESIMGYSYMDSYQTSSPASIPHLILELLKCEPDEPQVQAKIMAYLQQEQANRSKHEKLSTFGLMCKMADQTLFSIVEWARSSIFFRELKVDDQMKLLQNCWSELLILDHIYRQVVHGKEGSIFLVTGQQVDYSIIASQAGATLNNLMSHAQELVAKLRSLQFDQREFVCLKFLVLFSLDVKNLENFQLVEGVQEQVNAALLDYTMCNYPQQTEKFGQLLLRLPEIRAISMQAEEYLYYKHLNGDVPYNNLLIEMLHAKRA

T1: LexA-BCL11A-(310–325) (UniProt Q9H165)
T1 sequence: PPAMDFSRRLRELAGN

T2: LexA-BCL11A-(651–670) (UniProt Q9H165)
T2 sequence: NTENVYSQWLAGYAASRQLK

T3: LexA-BCL11A RID2 Y656A (UniProt Q9H165)
T3 sequence: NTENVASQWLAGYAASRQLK

T4: LexA-BCL11A RID2 S657A (UniProt Q9H165)
T4 sequence: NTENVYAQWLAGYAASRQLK

T5: LexA-BCL11A RID2 Y663A (UniProt Q9H165)
T5 sequence: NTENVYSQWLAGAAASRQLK

T6: LexA-BCL11A RID2 V655A (UniProt Q9H165)
T6 sequence: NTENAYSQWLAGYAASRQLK

T7: LexA-BCL11A RID2 L660A (UniProt Q9H165)
T7 sequence: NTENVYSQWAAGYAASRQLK

T8: LexA-BCL11A RID2 Q658A (UniProt Q9H165)
T8 sequence: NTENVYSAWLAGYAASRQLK

T9: LexA-BCL11A RID2 G662A (UniProt Q9H165)
T9 sequence: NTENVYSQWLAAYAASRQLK

T10: LexA-BCL11A RID2 W659A (UniProt Q9H165)
T10 sequence: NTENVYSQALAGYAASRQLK


Assays:
LexA-BCL11A-(310–325) [1] = target: T1, LexA-BCL11A-(310–325); test: two-hybrid; S. cerevisiae L40; LexA DBD fusion with VP16 AAD-NR fusion; β-galactosidase activity in cell-free extracts; 10^-6 M cognate ligand added
LexA-BCL11A-(651–670) [2] = target: T2, LexA-BCL11A-(651–670); test: as above
LexA-BCL11A-(310–325) [3] = target: T1, LexA-BCL11A-(310–325); test: two-hybrid; S. cerevisiae L40; LexA DBD fusion with VP16 AAD-NR fusion; β-galactosidase activity in cell-free extracts; vehicle only or no ligand
LexA-BCL11A-(651–670) [4] = target: T2, LexA-BCL11A-(651–670); test: as above
LexA-BCL11A RID2 Y656A = target: T3, LexA-BCL11A RID2 Y656A; test: as above
LexA-BCL11A RID2 S657A = target: T4, LexA-BCL11A RID2 S657A; test: as above
LexA-BCL11A RID2 Y663A = target: T5, LexA-BCL11A RID2 Y663A; test: as above
LexA-BCL11A RID2 V655A = target: T6, LexA-BCL11A RID2 V655A; test: as above
LexA-BCL11A RID2 L660A = target: T7, LexA-BCL11A RID2 L660A; test: as above
LexA-BCL11A RID2 Q658A = target: T8, LexA-BCL11A RID2 Q658A; test: as above
LexA-BCL11A RID2 G662A = target: T9, LexA-BCL11A RID2 G662A; test: as above
LexA-BCL11A RID2 W659A = target: T10, LexA-BCL11A RID2 W659A; test: as above
LexA-NSD1-(790–818) [5] = test: as above
LexA-NSD1-(790–818) [6] = test: two-hybrid; S. cerevisiae L40; LexA DBD fusion with VP16 AAD-NR fusion; β-galactosidase activity in cell-free extracts; 10^-6 M cognate ligand added

binding (LexA-BCL11A-(310–325) [3])	binding (LexA-BCL11A-(651–670) [4])	binding (LexA-NSD1-(790–818) [5])	Molecule	further results
–	–	–	AAD-PPARγ-LBD-(173–475) (domain or fragment)	binding (LexA-BCL11A-(310–325) [1]): no binding; binding (LexA-BCL11A-(651–670) [2]): no binding
no binding	no binding	–	AAD-RORβ-LBD-(98–459) (from UniProt Q92753) (domain or fragment)	–
–	–	–	AAD-TRβ-LBD-(169–456) (from UniProt P10828) (domain or fragment)	binding (LexA-BCL11A-(310–325) [1]): no binding; binding (LexA-BCL11A-(651–670) [2]): no binding
no binding	no binding	–	AAD-GCNF-LBD-(138–475) (from UniProt Q15406) (domain or fragment)	–
binds	binds	–	AAD-COUP-TFI-LBD-(151–467) (domain or fragment)	binding (LexA-BCL11A RID2 Y656A): no binding; binding (LexA-BCL11A RID2 S657A): no binding; binding (LexA-BCL11A RID2 Y663A): no binding; binding (LexA-BCL11A RID2 V655A): no binding; binding (LexA-BCL11A RID2 L660A): no binding; binding (LexA-BCL11A RID2 Q658A): binds; binding (LexA-BCL11A RID2 G662A): binds; binding (LexA-BCL11A RID2 W659A): no binding
no binding	no binding	–	AAD-RORα-LBD-(106–469) (from UniProt P35398) (domain or fragment)	–
no binding	no binding	–	AAD-LRH-1-LBD-(133–495) (from UniProt O00482) (domain or fragment)	–
–	–	binds	AAD-EAR2-LBD-(121–399) (domain or fragment, UniProt P10588 121-399) MRKEAVQRGRIPHSLPGAVAASSGSPPGSALAAVASGGDLFPGQPVSELIAQLLRAEPYPAAAGRFGAGGGAAGAVLGIDNVCELAARLLFSTVEWARHAPFFPELPVADQVALLRLSWSELFVLNAAQAALPLHTAPLLAAAGLHAAPMAAERAVAFMDQVRAFQEQVDKLGRLQVDSAEYGCLKAIALFTPDACGLSDPAHVESLQEKAQVALTEYVRAQYPSQPQRFGRLLLRLPALRAVPASLISQLFFMRLVGKTPIETLIRDMLLSGSTFNWP	–
–	–	binds	AAD-COUP-TFII-LBD-(144–414) (domain or fragment, UniProt P24468 144-414) MRREAVQRGRMPPTQPTHGQFALTNGDPLNCHSYLSGYISLLLRAEPYPTSRFGSQCMQPNNIMGIENICELAARMLFSAVEWARNIPFFPDLQITDQVALLRLTWSELFVLNAAQCSMPLHVAPLLAAAGLHASPMSADRVVAFMDHIRIFQEQVEKLKALHVDSAEYSCLKAIVLFTSDACGLSDVAHVESLQEKSQCALEEYVRSQYPNQPTRFGKLLLRLPSLRTVSSSVIEQLFFVRLVGKTPIETLIRDMLLSGSSFNWPYMAIQ	–
–	–	binds	AAD-HNF4γ-LBD-(88–408) (domain or fragment, UniProt Q14541 88-408) RISTRRSTFDGSNIPSINTLAQAEVRSRQISVSSPGSSTDINVKKIASIGDVCESMKQQLLVLVEWAKYIPAFCELPLDDQVALLRAHAGEHLLLGATKRSMMYKDILLLGNNYVIHRNSCEVEISRVANRVLDELVRPFQEIQIDDNEYACLKAIVFFDPDAKGLSDPVKIKNMRFQVQIGLEDYINDRQYDSRGRFGELLLLLPTLQSITWQMIEQIQFVKLFGMVKIDNLLQEMLLGGASNDGSHLHHPMHPHLSQDPLTGQTILLGPMSTLVHADQISTPETPLPSPPQGSGQEQYKIAANQASVISHQHLSKQKQL	–
–	–	binds	AAD-ERRα-LBD-(169–423) (domain or fragment, UniProt P11474 169-423) PLPFPGPFPAGPLAVAGGPRKTAAPVNALVSHLLVVEPEKLYAMPDPAGPDGHLPAVATLCDLFDREIVVTISWAKSIPGFSSLSLSDQMSVLQSVWMEVLVLGVAQRSLPLQDELAFAEDLVLDEEGARAAGLGELGAALLQLVRRLQALRLEREEYVLLKALALANSDSVHIEDAEAVEQLREALHEALLEYEAGRAGPGGGAERRRAGRLLLTLPLLRQTAGKVLAHFYGVKLEGKVPMHKLFLEMLEAMMD	–
–	–	–	AAD-VDR-LBD-(123–426) (domain or fragment, UniProt P11473 123-426) KLSEEQQRIIAILLDAHHKTYDPTYSDFCQFRPPVRVNDGGGSHPSRPNSRHTPSFSGDSSSSCSDHCITSSDMMDSSSFSNLDLSEEDSDDPSVTLELSQLSMLPHLADLVSYSIQKVIGFAKMIPGFRDLTSEDQIVLLKSSAIEVIMLRSNESFTMDDMSWTCGNQDYKYRVSDVTKAGHSLELIEPLIKFQVGLKKLNLHEEEHVLLMAICIVSPDRPGVQDAALIEAIQDRLSNTLQTYIRCRHPPPGSHLLYAKMIQKLADLRSLNEEHSKQYRCLSFQPECSMKLTPLVLEVFGNEI	binding (LexA-NSD1-(790–818) [6]): binds
